1 compound from PMC12171682, “Saarvienin A—A Novel Glycopeptide with Potent Activity against Drug‐Resistant Bacteria” (Angewandte Chemie (International Ed. in English), 2025) can be followed below.

The structures appear in SMILES notation. Bounds are passed on as bounds.

In this assay the test system is E. faecium DSM 17050 (VRE, vanA positive). Particulars: broth microdilution, cation-adjusted Mueller-Hinton Broth II, ~4 × 10⁵ CFU/mL, 37 °C, 24 h; mean of three independent biological replicates, each in technical triplicate. On the technique in general: In broth dilution the organism is exposed to a series of concentrations in liquid medium.

Regarding `CN[C@H](CC(C)C)C(=O)N[C@H]1C(=O)N[C@@H](CC(N)=O)C(=O)N[C@H]2C(=O)N[C@H]3C(=O)N[C@H](C(=O)N[C@H](C(=O)O)c4cc(O)cc(O)c4-c4cc3ccc4O)[C@H](O)c3ccc(c(Cl)c3)Oc3cc2cc(c3O[C@@H]2O[C@H](CO)[C@@H](O)[C@H](O)[C@H]2O[C@H]2C[C@](C)(N)[C@H](O)[C@H](C)O2)Oc2ccc(cc2Cl)[C@H]1O` [Vancomycin, vancomycin], the “MIC, E. faecium DSM 17050 (VRE, vanA positive)” value is greater than 64 µg/mL.
